6 molecules from paper PMC4322367 can be followed below.

Chains of the proteins cited; added tags and fusions are not shown.
UniProt Q96GD4: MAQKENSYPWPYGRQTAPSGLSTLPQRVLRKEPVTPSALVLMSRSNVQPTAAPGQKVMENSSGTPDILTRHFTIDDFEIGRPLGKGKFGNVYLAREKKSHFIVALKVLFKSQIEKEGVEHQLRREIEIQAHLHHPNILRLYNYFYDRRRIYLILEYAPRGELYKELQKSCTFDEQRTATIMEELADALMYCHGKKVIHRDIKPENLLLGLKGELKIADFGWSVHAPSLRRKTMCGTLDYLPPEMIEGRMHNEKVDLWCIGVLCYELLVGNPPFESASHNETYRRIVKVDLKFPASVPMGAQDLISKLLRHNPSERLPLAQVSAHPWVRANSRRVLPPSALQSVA

Results are given in words; binding and its absence hold for the method and conditions named. For some assays here: In cells and extracts the contact can be indirect. Some results given as binding are weak or reduced against the parent protein; the word gives no strength. For some assays here: Tags and fused reporters may be left off the sequences shown.

Test [1] addresses T1, GST-Ataxin-10 (human) (UniProt Q9UBB4).
T1 sequence: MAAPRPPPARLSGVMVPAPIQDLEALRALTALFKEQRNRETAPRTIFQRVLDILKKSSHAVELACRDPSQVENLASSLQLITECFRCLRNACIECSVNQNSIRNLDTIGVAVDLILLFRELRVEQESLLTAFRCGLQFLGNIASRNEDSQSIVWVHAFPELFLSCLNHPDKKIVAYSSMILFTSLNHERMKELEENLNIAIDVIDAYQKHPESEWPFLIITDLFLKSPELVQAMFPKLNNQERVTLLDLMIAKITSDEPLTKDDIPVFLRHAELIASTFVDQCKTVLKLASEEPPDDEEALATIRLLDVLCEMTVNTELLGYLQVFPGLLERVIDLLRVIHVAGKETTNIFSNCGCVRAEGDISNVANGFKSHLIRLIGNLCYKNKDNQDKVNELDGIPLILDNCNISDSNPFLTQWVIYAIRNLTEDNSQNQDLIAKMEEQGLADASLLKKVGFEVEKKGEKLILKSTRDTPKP
The test is described as follows: pull-down; bacterially purified GST-Ataxin-10 incubated with HA-Aurora B transfected in HeLa cells; only the target purified.

Test [2] has as its target T2, FLAG-Ataxin-10 (human) (UniProt Q9UBB4).
T2 sequence: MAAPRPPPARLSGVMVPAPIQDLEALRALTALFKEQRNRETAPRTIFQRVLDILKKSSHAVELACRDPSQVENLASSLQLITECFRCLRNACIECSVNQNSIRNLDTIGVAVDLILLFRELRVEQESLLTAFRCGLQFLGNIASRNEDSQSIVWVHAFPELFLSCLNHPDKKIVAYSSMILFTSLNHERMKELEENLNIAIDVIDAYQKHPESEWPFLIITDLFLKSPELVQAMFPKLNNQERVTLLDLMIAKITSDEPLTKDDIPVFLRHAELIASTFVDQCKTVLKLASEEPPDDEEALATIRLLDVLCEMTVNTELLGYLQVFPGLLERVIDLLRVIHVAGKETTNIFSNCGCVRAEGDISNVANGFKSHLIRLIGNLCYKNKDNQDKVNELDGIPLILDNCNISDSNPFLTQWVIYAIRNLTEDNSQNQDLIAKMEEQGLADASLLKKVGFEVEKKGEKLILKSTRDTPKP
The test is described as follows: co-IP; HeLa cells transfected with FLAG-Ataxin-10 and HA-Aurora B; IP with anti-FLAG antibodies (Fig. 1B) and reciprocal IP (Fig. 1C); cells treated or untreated with nocodazole (100 ng/ml, 16 hours), with which the interaction weakened markedly.

The target of test [3] is T2, FLAG-Ataxin-10 (human). Put plainly: co-IP; HeLa cells transfected with FLAG-Ataxin-10-WT or FLAG-Ataxin-10-S12A together with HA-Plk1; blots quantified.
Test [4] concerns the target T1, GST-Ataxin-10 (human). The test is described as follows: pull-down; GST-Ataxin-10 and His-Aurora B, both bacterially expressed, incubated together; GST pull-down; both purified.
For test [5], the target named is T1, GST-Ataxin-10 (human). The test is described as follows: pull-down; GST-Ataxin-10 or GST-Ataxin-10-S12A incubated with His-Plk1; GST pull-down; blots quantified.
The target of test [6] is endogenous Aurora B (human (endogenous in HeLa)) (UniProt Q96GD4). Put plainly: co-IP; endogenous proteins; Aurora B immunoprecipitates blotted with anti-Ataxin-10 antibodies; IgG immunoprecipitates as negative controls.
A further test deals with HA-Aurora B (UniProt Q96GD4). Put plainly: co-IP; HeLa cells transfected with FLAG-Ataxin-10 and HA-Aurora B; IP with anti-FLAG antibodies (Fig. 1B) and reciprocal IP (Fig. 1C); cells treated or untreated with nocodazole (100 ng/ml, 16 hours), with which the interaction weakened markedly.
The target in another test is GST-Aurora B (UniProt Q96GD4). Put plainly: pull-down; bacterially expressed, purified GST-Aurora B incubated with lysates from HeLa cells transfected with FLAG-Ataxin-10; only the target purified.

Regarding “HA-Aurora B (from UniProt Q96GD4 1-344) (enzyme)”, the binding entry with GST-Ataxin-10 (human) [1] and in the test with FLAG-Ataxin-10 (human) [2] was “binds” in each case. For the molecule “HA-Plk1 (from UniProt P53350 1-603) (enzyme)”, the binding result in the test with FLAG-Ataxin-10 (human) [3] is given as “binds”. Consider “His-Aurora B (from UniProt Q96GD4 1-344) (enzyme)”, for which the binding entry with GST-Ataxin-10 (human) [4] was “binds”. Take “His-Plk1 (from UniProt P53350 1-603) (enzyme)”: the binding result with GST-Ataxin-10 (human) [5] is “binds”.

B1: endogenous Ataxin-10 (protein, UniProt Q9UBB4 1-475)
chain: MAAPRPPPARLSGVMVPAPIQDLEALRALTALFKEQRNRETAPRTIFQRVLDILKKSSHAVELACRDPSQVENLASSLQLITECFRCLRNACIECSVNQNSIRNLDTIGVAVDLILLFRELRVEQESLLTAFRCGLQFLGNIASRNEDSQSIVWVHAFPELFLSCLNHPDKKIVAYSSMILFTSLNHERMKELEENLNIAIDVIDAYQKHPESEWPFLIITDLFLKSPELVQAMFPKLNNQERVTLLDLMIAKITSDEPLTKDDIPVFLRHAELIASTFVDQCKTVLKLASEEPPDDEEALATIRLLDVLCEMTVNTELLGYLQVFPGLLERVIDLLRVIHVAGKETTNIFSNCGCVRAEGDISNVANGFKSHLIRLIGNLCYKNKDNQDKVNELDGIPLILDNCNISDSNPFLTQWVIYAIRNLTEDNSQNQDLIAKMEEQGLADASLLKKVGFEVEKKGEKLILKSTRDTPKP
In the case of B1, the binding result in test [6] is “binds”.

B2: FLAG-Ataxin-10 (protein, UniProt Q9UBB4 1-475)
chain: MAAPRPPPARLSGVMVPAPIQDLEALRALTALFKEQRNRETAPRTIFQRVLDILKKSSHAVELACRDPSQVENLASSLQLITECFRCLRNACIECSVNQNSIRNLDTIGVAVDLILLFRELRVEQESLLTAFRCGLQFLGNIASRNEDSQSIVWVHAFPELFLSCLNHPDKKIVAYSSMILFTSLNHERMKELEENLNIAIDVIDAYQKHPESEWPFLIITDLFLKSPELVQAMFPKLNNQERVTLLDLMIAKITSDEPLTKDDIPVFLRHAELIASTFVDQCKTVLKLASEEPPDDEEALATIRLLDVLCEMTVNTELLGYLQVFPGLLERVIDLLRVIHVAGKETTNIFSNCGCVRAEGDISNVANGFKSHLIRLIGNLCYKNKDNQDKVNELDGIPLILDNCNISDSNPFLTQWVIYAIRNLTEDNSQNQDLIAKMEEQGLADASLLKKVGFEVEKKGEKLILKSTRDTPKP
Regarding B2, the binding result with HA-Aurora B and with GST-Aurora B was “binds” throughout.
